SMILES strings stand for the structures. “And” between values parts separate entries of the source, which are not always exact repeats. Equal entries are not always repeated. This is one part of the list. These are further read-outs of the screen, such as a control signal, another cell line or another target. No call is given for them. For part of these data: The list favours compounds with an active or inconclusive main result. Square brackets hold non-standard residues; d marks the D form. Side chains are listed from the residue outwards. Peptide text beside a SMILES is read from it. * marks the point of attachment. X1 = CCC(C)C(N)C1=NC(C(=O)*)CS1; Orn = NCCC[CH](N)C(=O)O

The first experiment is described as follows: enhancers of SMN2 over SMN1 splicing, cell-based, SMN2/SMN1 luciferase reporters (AID 1598). Particulars: SMN2 vs SMN1 luciferase splicing reporter cells, at 10 µM; SMN1 luciferase ratio: measured here: SMN1 luciferase reporter average; SMN2 luciferase ratio: measured here: SMN2 luciferase reporter average, stronger effect = higher value.
Consider `CS(=O)(=O)OCCCCOS(C)(=O)=O`, for which the SMN1 luciferase ratio is 0.85 and the SMN2 luciferase ratio stood at 0.81. The corresponding values for `CCN(CC)C(C)CN1c2ccccc2Sc2ccccc21` (configuration not stated) are 0.86 and 0.95. For `CN(C)CC/C=C1/c2ccccc2COc2ccccc21`, in that order: 0.83 and 0.79. For the compound `CC1CCC(NC(=O)N(CCCl)N=O)CC1` (configuration not stated), the SMN2 luciferase ratio came to 0.97 and the SMN1 luciferase ratio is 0.94. For `CN1C[C@H](C(=O)N[C@]2(C)O[C@@]3(O)[C@@H]4CCCN4C(=O)[C@H](Cc4ccccc4)N3C2=O)C[C@@H]2c3cccc4[nH]cc(c34)C[C@H]21`, in that order: 0.93 and 0.96.

For `CC(=O)[C@H]1CCC2C3CC=C4C[C@@H](O)CC[C@]4(C)C3CC[C@@]21C` (some centres not stated), the SMN1 luciferase ratio was 0.92 and the SMN2 luciferase ratio turned out to be 0.94. `O=C(O)P(=O)(O)O`: the SMN2 luciferase ratio was 0.91 and the SMN1 luciferase ratio was 0.97. Take `C[C@@H]1CC2C3C[C@H](F)C4=CC(=O)C=C[C@]4(C)[C@@]3(F)[C@@H](O)C[C@]2(C)[C@@]1(O)C(=O)CO` (some centres not stated): the SMN1 luciferase ratio was 0.82 and the SMN2 luciferase ratio stood at 0.94. Take `CCCCNC(=O)NS(=O)(=O)c1ccc(C)cc1`: the SMN2 luciferase ratio was found to be 0.92 and the SMN1 luciferase ratio was found to be 0.94.

Another experiment can be described thus: protection against mutant huntingtin cytotoxicity, PC12 cells, LDH release (AID 1610). Particulars: PC12 mutant huntingtin toxicity, final LDH at 4 uM, stronger effect = lower value.
In turn, `CC(=O)NCCc1c[nH]c2ccc(O)cc12` came in with a normalised LDH release of 0.957. Still for that read-out and setting: the value for `N[C@@H]1CONC1=O` was 0.75; that for `CN=C(N)NCCCC(N)C(=O)O` (configuration not stated) was 0.893. The same measure, in the same setting: the same measure for `C[C@@H]1O[C@@H](O[C@H]2[C@H](Oc3cc(O)c4c(c3)O[C@H](c3ccc(O)cc3)CC4=O)O[C@H](CO)[C@@H](O)[C@@H]2O)[C@H](O)[C@H](O)[C@H]1O`: 1.06; for `O=C1NCC2(CCN(CCc3ccccc3)CC2)O1`: 0.859. On the same count and under the same terms, the value for `CCn1cc(C(=O)O)c(=O)c2cnc(N3CCNCC3)nc21` was 1.14; that for `C#C[C@]1(O)CCC2C3CCC4=CC(=O)CC[C@@H]4C3CC[C@@]21CC` (some centres not stated) was 0.883; that for `Cc1cc(=O)n(-c2ccccc2)n1C` was 1.27. As for `Nc1ccc(S(=O)(=O)Nc2ccnn2-c2ccccc2)cc1`, the normalised LDH release was 0.896. The same measure, in the same setting: the same measure for `CN(C)CCOC(C)(c1ccccc1)c1ccccn1` (configuration not stated): 0.901; for `C1CCN2C[C@@H]3CC(CN4CCCC[C@@H]34)[C@H]2C1`: 0.828. `CCCNC(C)C(=O)Nc1ccccc1C` (configuration not stated) had a normalised LDH release of 0.842. With `CCC(C)C(N)C1=NC(C(=O)NC(CC(C)C)C(=O)NC(CCC(=O)O)C(=O)NC(C(=O)NCCCCC2NC(=O)C(CC(N)=O)NC(=O)C(CC(=O)O)NC(=O)C(Cc3cnc[nH]3)NC(=O)C(Cc3ccccc3)NC(=O)C(C(C)CC)NC(=O)C(CCCN)NC2=O)C(C)CC)CS1` (stereo not drawn) (cyclo(DNK([Ile-Glu-Leu-X1])[Orn]IFH); configuration not given here), the normalised LDH release is 0.794. For the compound `CC(=O)Oc1ccc2c(c1)CCC1C2CC[C@@]2(C)C1CC[C@@H]2OC(C)=O` (some centres not stated), the normalised LDH release is 0.754.

The compound `O=C(O)c1cc(O)ccc1O` registered a normalised LDH release of 1.06. Take `CC(=O)OCC(=O)[C@@]12OC3(CCCC3)O[C@@H]1CC1C3CCC4=CC(=O)C=C[C@]4(C)[C@@]3(F)[C@@H](O)C[C@@]12C` (some centres not stated): the normalised LDH release stood at 0.395. With `CC1(C)C2CC[C@]3(C)C(C(=O)C=C4[C@@H]5C[C@@](C)(C(=O)O)CC[C@]5(C)CC[C@]43C)[C@@]2(C)CC[C@@H]1O` (some centres not stated), the normalised LDH release is 1.16.

In turn, `O=C(O)c1cc(=O)c2cccc(O)c2[nH]1` showed a normalised LDH release of 0.844.

Consider `Cc1cccc(N(C)C(=S)Oc2ccc3ccccc3c2)c1`, for which the normalised LDH release stood at 0.954. In turn, `O=C(O)CN(CCN(CC(=O)O)CC(=O)O)CC(=O)O` displayed a normalised LDH release of 0.962. Same read-out and setting: the same measure for `CN(C)CCC(c1ccccc1)c1ccccn1` (configuration not stated): 0.622. Same read-out and setting: the value for `Cc1nnc(NS(=O)(=O)c2ccc(N)cc2)s1` was 1.17; that for `CCC(=O)c1ccc2c(c1)N(CC(C)N(C)C)c1ccccc1S2` (configuration not stated) was 0.767. On the same count and under the same terms, the value for `CCN(CC)C(=O)c1cccc(C)c1` was 1.01; that for `Cc1cc(C)nc(NS(=O)(=O)c2ccc(N)cc2)n1` was 0.88; that for `NCCCC(=O)O` was 0.941. As to `NC(N)=NC(N)=Nc1ccccc1`, the normalised LDH release is 0.843 and 0.891.

For `CN1C(=O)CC[C@H]1c1cccnc1`, the normalised LDH release amounted to 0.462.

Turning to `Nc1ncnc2c1ncn2C1O[C@H](COP(=O)(O)O)[C@@H](O)[C@H]1O` (some centres not stated), the normalised LDH release came to 0.928. In turn, `c1ccc([C@H]2CN3CCSC3=N2)cc1` showed a normalised LDH release of 1.23. On the same count and under the same terms, the value for `CS(=O)(=O)OCCCCOS(C)(=O)=O` was 0.628.

Turning to `CCN(CC)C(C)CN1c2ccccc2Sc2ccccc21` (configuration not stated), the normalised LDH release came out at 0.795.

Compound `CN(C)CC/C=C1/c2ccccc2COc2ccccc21` had a normalised LDH release of 0.912. Consider `CC1CCC(NC(=O)N(CCCl)N=O)CC1` (configuration not stated), for which the normalised LDH release is 0.677.

`CN1C[C@H](C(=O)N[C@]2(C)O[C@@]3(O)[C@@H]4CCCN4C(=O)[C@H](Cc4ccccc4)N3C2=O)C[C@@H]2c3cccc4[nH]cc(c34)C[C@H]21`: the normalised LDH release is 1.27.

Turning to `CC(=O)[C@H]1CCC2C3CC=C4C[C@@H](O)CC[C@]4(C)C3CC[C@@]21C` (some centres not stated), the normalised LDH release came to 0.823.

The compound `O=C(O)P(=O)(O)O` showed a normalised LDH release of 1.89. Still for that read-out and setting: the value for `C[C@@H]1CC2C3C[C@H](F)C4=CC(=O)C=C[C@]4(C)[C@@]3(F)[C@@H](O)C[C@]2(C)[C@@]1(O)C(=O)CO` (some centres not stated) was 0.372; that for `CCCCNC(=O)NS(=O)(=O)c1ccc(C)cc1` was 1.02.

Source of the values: PubChem BioAssay.
